Some of the results follow. This data set is noisy: repeats of one test often differ as much as different tests do.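 Human kidney-derived cells stably carry a construct in which eight TEAD-binding elements drive luciferase, measured by luminescence in a drug-repurposing library screen. A hit is any compound whose signal exceeds the plate mean by more than five robust Z scores.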
Test system: HEK293A TEAD-LUC reporter
Assay: TEAD-luciferase reporter activity (YAP activation), robust Z score vs plate; higher = stronger YAP/TEAD activation
Conditions: 24 h

| Structure (SMILES) | TEAD-luciferase reporter activity (compound concentration: 200 nM) | TEAD-luciferase reporter activity (compound concentration: 2 uM) | TEAD-luciferase reporter activity (compound concentration: 10 uM) |
| --- | --- | --- | --- |
| COc1cc(C(=O)O)nc(-c2csc(CCCCCC(C)O)n2)c1OC (stereo unspecified) | inactive: -1.46 | inactive: -0.395 | inactive: -0.201 |
| COc1ccc2c(c1)c(CC(=O)O)c(C)n2C(=O)c1ccc(N=[N+]=[N-])cc1 | inactive: -1.22 | inactive: -0.523 | inactive: -1.42 |
| COc1cccc(-c2c(C)n(Cc3c(F)cccc3F)c(=O)n(C[C@H](N)c3ccccc3)c2=O)c1F | inactive: 0.117 | inactive: 0.281 | inactive: -0.784 |
| O=C(NC1CCCCNC1=O)c1cccc(C(F)(F)F)c1 (stereo unspecified) | inactive: -1.65 | inactive: -1.46 | inactive: -1.47 |
| O=C1CCCN1C1CCN(Cc2ccc(F)cc2)CC1 | inactive: -0.326 |  | inactive: 2.44 |
| C[C@@H](CN1CC(=O)NC(=O)C1)N1CC(=O)NC(=O)C1 [razoxane] | inactive: -1.62 | inactive: -0.819 | inactive: 1.61 |
| O=C([O-])CCSC[C@@H]1OC2O[C@@H]3[C@@H](O)[C@H](O)C(O[C@@H]4[C@@H](O)[C@H](O)C(O[C@@H]5[C@@H](O)[C@H](O)C(O[C@@H]6[C@@H](O)[C@H](O)C(O[C@@H]7[C@@H](O)[C@H](O)C(O[C@@H]8[C@@H](O)[C@H](O)C(O[C@@H]9[C@@H](O)[C@H](O)C(O[C@@H]1[C@@H](O)[C@@H]2O)O[C@H]9CSCCC(=O)[O-])O[C@H]8CSCCC(=O)O)O[C@H]7CSCCC(=O)O)O[C@H]6CSCCC(=O)O)O[C@H]5CSCCC(=O)O)O[C@H]4CSCCC(=O)O)O[C@H]3CSCCC(=O)O [Sugammadex (sodium)] | inactive: -0.738 | inactive: 0.844 | inactive: -0.852 |
| O=P(O)(O)C(Cc1ccccn1)P(=O)(O)O [piridronate sodium] | inactive: -0.656 |  | inactive: 0.521 |
| CCN(C/C=C/C#CC(C)(C)C)Cc1cccc(OCC(C)(C)OCc2ccsc2)c1 | inactive: -0.298 | inactive: 2.97 | inactive: -0.703 |
| CC(C)Nc1ncccn1 [isaxonine] | inactive: -0.576 | inactive: -1.68 | inactive: -0.582 |
| CC(C)[C@@H](CS(=O)(=O)C(C)C)N1C(=O)[C@@](C)(CC(=O)O)C[C@H](c2cccc(Cl)c2)[C@H]1c1ccc(Cl)cc1 | inactive: -1.15 | inactive: -0.582 | inactive: 2.7 |
| CCCCCC[N+](C)(C)Cc1ccccc1 | inactive: -1.51 | inactive: 0.0519 | inactive: -0.982 |
| Cc1cc(N)c2cc(NC(=O)Nc3ccc4nc(C)cc(N)c4c3)ccc2n1 | inactive: -1.03 | inactive: 3.24 | inactive: 1.7 |
| C=C1CCO[C@]12CC[C@H]1C3CCC4=CC(=O)CCC4=C3[C@@H](c3ccc(C(C)=O)cc3)C[C@@]12C (stereo partly specified) | inactive: 4.33 | inactive: 1.83 | inactive: 0.00851 |
| CN(CC(=O)c1ccc(OCC(=O)O)c(OCC(=O)O)c1)C(=O)c1ccc(C(=N)N)cc1 | inactive: -1.14 | inactive: 0.366 | inactive: 1.72 |
| Cn1ncc(Cl)c1-c1cc(C(=O)N[C@H](CN)Cc2ccc(F)c(F)c2)oc1Cl [Uprosertib] | inactive: -1.7 | active: 5 | active: 6.28 |
| Cc1nc(C)c2c(n1)N(Cc1ccc(-c3ccccc3-c3nn[nH]n3)cc1)C(=O)CC2 [tasosartan] | inactive: -0.0118 | inactive: 0.256 | inactive: 0.479 |
| CCCCCCCCCCCCN1CCCCCC1=O [Laurocapram] | inactive: 0.215 | inactive: 0.768 | inactive: -0.521 |
| CCCCc1nc2cccnc2n1Cc1ccc(-c2ccccc2-c2nnn[nH]2)cc1 | inactive: -0.786 | inactive: -1.51 | inactive: 0.221 |
| CC(C)OP(=O)(OC(C)C)C(Cc1cc(C(C)(C)C)c(O)c(C(C)(C)C)c1)P(=O)(OC(C)C)OC(C)C [Apomine] |  | inactive: 1.46 |  |
| CC(C)OP(=O)(OC(C)C)C(Cc1cc(C(C)(C)C)c(O)c(C(C)(C)C)c1)P(=O)(OC(C)C)OC(C)C | inactive: -0.635 |  | inactive: 0.103 |
| O=C(c1ccc2c(c1)OCO2)N1CCC(N2CCOC2=O)CC1 | inactive: -0.551 |  | inactive: 1.78 |
| Cc1ccccc1C(=O)Nc1ccc(C(=O)N2CCCC(N(C)C)c3ccccc32)cc1 (stereo unspecified) [mozavaptan] | inactive: -0.225 | inactive: -0.549 | inactive: -0.753 |
| CC1c2cccc(O)c2C(=O)C2=C(O)C3(O)C(=O)C(C(N)=O)=C(O)C(N(C)C)C3C(O)C21 (stereo unspecified) [doxycycline, MiddleBrook] | inactive: -1.33 | inactive: 0.245 | inactive: -1.3 |
| O=C(O)C1Cc2c(c(Cl)cc3c(-c4ccccc4)noc23)O1 (stereo unspecified) | inactive: 1.3 | inactive: -0.393 | inactive: 3.49 |
| CC(C)c1ccc(CN2CCN(C(c3ccc(F)cc3)c3ccc(F)cc3)CC2)c(=O)c(NCCO)c1 | inactive: -1.09 | inactive: -1.62 | inactive: 0.0853 |

Full records, quoted from the list. Values in the order: TEAD-luciferase reporter activity (compound concentration: 200 nM)	TEAD-luciferase reporter activity (compound concentration: 2 uM)	TEAD-luciferase reporter activity (compound concentration: 10 uM)
CCCCc1nc2cccnc2n1Cc1ccc(-c2ccccc2-c2nnn[nH]2)cc1 is listed as inactive: -0.786	inactive: -1.51	inactive: 0.221
Cc1cc(N)c2cc(NC(=O)Nc3ccc4nc(C)cc(N)c4c3)ccc2n1 is listed as inactive: -1.03	inactive: 3.24	inactive: 1.7

Additional records follow.

| Structure (SMILES) | TEAD-luciferase reporter activity (compound concentration: 200 nM) | TEAD-luciferase reporter activity (compound concentration: 2 uM) | TEAD-luciferase reporter activity (compound concentration: 10 uM) |
| --- | --- | --- | --- |
| COc1ccc2c(c1)c(CC(=O)Oc1ccc(NC(C)=O)cc1)c(C)n2C(=O)c1ccc(Cl)cc1 | inactive: -1.89 | inactive: 0.139 | inactive: -0.708 |
| CC1CC2Oc3ccc(Cl)cc3C(=O)N2O1 (stereo unspecified) | inactive: -0.823 | inactive: 0.633 | inactive: -0.263 |
| N#C/C(=C1/SCC(c2ccccc2Cl)S1)n1ccnc1 (stereo unspecified) [lanoconazole] | inactive: -1.12 | inactive: -2.39 | inactive: 0.241 |
| CC(=O)N1Cc2ccccc2OC2(CCN(C(=O)Cc3ccc(O)cc3)CC2)C1 | inactive: -1.06 |  | inactive: -0.14 |
| COc1cc(CC(=O)NN(c2ccc(Cc3ccccc3)cc2)c2c(C)cccc2N2CCCCC2)c(Br)cc1C(=O)O | inactive: -0.711 | inactive: 0.307 | inactive: -0.0754 |
| F[C@H]1C[C@](c2ccc(Cl)cc2)(c2nnc(C3CC3)n2C2CC2)C1 | inactive: 0.977 | inactive: 0.0603 | inactive: -0.697 |
| O=c1[nH]c(=O)c2ccccc2o1 | inactive: -0.96 | inactive: -2.19 | inactive: -0.307 |
| OC[C@H]1O[C@@H](n2cnc3c(N[C@H]4CCC[C@@H]4O)ncnc32)[C@H](O)[C@@H]1O | inactive: -1.05 | inactive: -1.68 | inactive: 3.2 |
| CCCCCOC(=O)Nc1nc(=O)n([C@@H]2O[C@H](C)[C@@H](O)[C@H]2O)cc1F [Capecitabine] | inactive: 0.177 |  | inactive: -0.567 |
| CCCCCOC(=O)Nc1nc(=O)n([C@@H]2O[C@H](C)[C@@H](O)[C@H]2O)cc1F [capecitabine] |  | inactive: -1.62 |  |
| CN1C(=O)CC[C@]2(C)[C@H]3CC[C@]4(C)[C@@H](C(=O)O)CC[C@H]4[C@@H]3CC[C@@H]12 | inactive: -0.42 | inactive: 0.24 | inactive: -0.345 |
| CC1(C)S[C@@H]2[C@H](N3C(=O)[C@@H](c4ccccc4)NC3(C)C)C(=O)N2[C@H]1C(=O)O | inactive: 1.09 | inactive: -0.113 | inactive: -0.686 |
| C=CC(N)CCC(=O)O (stereo unspecified) [vigabatrin] | inactive: 3.73 | active: 5.46 | inactive: -1.05 |
| CCOC(=O)C(C)NC(=O)c1cccc(N(Cc2cccnc2)c2ccc(OC)c(OC3CCCC3)c2)c1 (stereo unspecified) | inactive: 2.16 | inactive: -1.27 | inactive: -0.593 |
| O=C(NCCCn1ncccc1=O)C1COc2ccccc2O1 (stereo unspecified) | inactive: 0.291 | inactive: 0.127 | inactive: -2.66 |
| CN(C)CCOC(C)(c1ccccc1)c1ccc(Cl)cc1 (stereo unspecified) | inactive: -0.278 | inactive: 0.579 | inactive: -0.556 |
| O=C(O)Cc1ccccc1Nc1c(Cl)cccc1Cl [diclofenac gel] |  | inactive: -1.83 |  |
| O=C(O)Cc1ccccc1Nc1c(Cl)cccc1Cl | inactive: -0.545 |  | inactive: -0.695 |
| COc1c(NC(=O)C(=O)c2ccc(OCCN3CCOCC3)c3ccccc23)cc(C(C)(C)C)cc1NS(C)(=O)=O | inactive: -1.26 | inactive: -0.39 | inactive: 0.0229 |
| O=C(NCCN1CCN=C1c1ccncc1)Nc1ccc(C(=O)O)cc1 | inactive: 0.188 |  | inactive: 0.707 |
| O=C(NCc1cccc(Cl)c1)c1ccc2nc(-c3ccncc3)oc2c1 | inactive: -0.252 |  | inactive: -1.62 |
| CC(C)(C)NC(=O)[C@H]1CC[C@H]2[C@@H]3CC=C4C=C(C(=O)O)CC[C@]4(C)[C@H]3CC[C@]12C [epristeride] | inactive: -1.52 | inactive: 1.52 | inactive: 0.114 |
| CCCCC/C=C/C/C=C/CCCCCCCC(=O)OCC(=O)[C@@]1(O)[C@H](C)C[C@H]2[C@@H]3CCC4=CC(=O)C=C[C@]4(C)[C@@]3(F)[C@@H](O)C[C@@]21C [dexamethasone linoleate] | inactive: 0.193 | inactive: -0.0617 | inactive: 0.756 |
| COc1cc(C(=O)N2CCC(CCN3CCC(C(=O)N4CCN(CC(=O)O)CC4)(c4ccccc4)CC3)(c3ccc(Cl)c(Cl)c3)C2)cc(OC)c1OC (stereo unspecified) | inactive: -1.71 | inactive: 0.075 | inactive: -1.35 |
| CC(SC(=O)c1cccs1)C(=O)NC1CCSC1=O (stereo unspecified) [Midesteine] | inactive: 0.601 | inactive: 1.16 | inactive: -0.618 |
| Fc1ccc(NC(=S)Nc2cccc(Cl)c2)cc1 | inactive: -0.123 | inactive: -0.864 | inactive: -0.93 |
